Test results reported in paper doi:10.1101/2022.04.02.486817.
These are yes or no findings as the source states them, for the method shown. Some results given as binding are weak or reduced against the parent protein; the word gives no strength.

Amino acid sequences for entries named in this document (tags omitted). Residues count along the entry.
UniProt P17427, residues 702-938: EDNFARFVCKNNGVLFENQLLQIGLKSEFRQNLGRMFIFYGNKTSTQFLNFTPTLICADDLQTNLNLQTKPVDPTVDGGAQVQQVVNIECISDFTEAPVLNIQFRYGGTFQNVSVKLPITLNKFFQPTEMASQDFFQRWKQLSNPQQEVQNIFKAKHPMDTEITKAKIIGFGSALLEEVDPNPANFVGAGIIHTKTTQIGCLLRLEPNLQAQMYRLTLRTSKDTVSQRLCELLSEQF

Target: AP2 α-appendage (UniProt P17427)
Test: crystal structure

- binding: binds
B1: FCHO1 C peptide (residues 426-448 …) (peptide)
peptide: SEEQVSKNLFGPPLESAFDHEH
